Measurements reported in patent publication US20160220523A1 (GEORGETOWN UNIVERSITY, priority 2013, published 2016).
At least one structure is not confirmed: it was looked up by name or label, or the drawing left a doubt.

Legend:
MN9D cells [1] = test: MN9D cell viability under 6-OHDA stress, MTS assay; assay type: cell-based, mouse; settings: MN9D cells pretreated 4 hours, then 6-OHDA 12 hours
PGC-1α [2] = test: PGC-1α gene expression in MN9D cells (RT-PCR); assay type: cell-based, mouse
MN9D cells [3] = test: Mitochondrial content in MN9D cells, MitoTracker 96-well assay; assay type: cell-based, mouse; settings: FIG. 1B
AMPK = AMPK phosphorylation in BV2 cells (Western blot); assay type: cell-based, murine; settings: various doses of fenofibrate, 1 hour
Protocol: (§1) Cell lysate was collected for Western blotting analysis.
BV-2 cells (murine microglia) were maintained in Dulbecco's Modified Eagle Medium supplemented with 10% fetal bovine serum and antibiotics (penicillin, 100 U/mL, streptomycin 100 μg/mL). Antibiotics were omitted for the fenofibrate evaluation study.
(§2) AMPK is an energy sensor and can phosphorylate PGC-1α. It is plausible that AMPK phosphorylates PGC-1α and that PGC-1α then acts through positive feedback, binding to myocyte enhancer factor (MEF)-binding site to increase its own gene expression.

PGC-1α [4] = test: PGC-1α expression in LPS-treated BV2 cells (RT-PCR); assay type: cell-based, murine; settings: BV2 cells pretreated 4 hours, then LPS 4 hours, FIG. 2A
Protocol: (§3) PGC-1α expression was determined by RT-PCR.
(§4) Then the cells were treated with 100 ng/mL LPS for 4 hrs. […] (**p<0.01 vs. control; ##p<0.001 vs. LPS).
(§5) MN9D cells were cultured in Dulbecco's Modified Eagle Medium (DMEM) supplemented with 10% fetal bovine serum, and 3.7 g/L sodium bicarbonate at 37° C., 5% carbon dioxide. BV-2 cells (murine microglia) were maintained in DMEM supplemented with 10% fetal bovine serum and antibiotics (penicillin, 100 U/mL, streptomycin […]). Antibiotics were omitted for the fenofibrate evaluation study.

IL-1β = test: LPS-induced IL-1β expression in BV2 cells (RT-PCR); assay type: cell-based, murine; settings: BV2 cells pretreated 4 hours, then LPS 4 hours, FIG. 2B
Protocol: as §3, §4, §1, §5, §2

Compound: CC(C)OC(=O)C(C)(C)Oc1ccc(C(=O)c2ccc(Cl)cc2)cc1 [fenofibrate]
- protection from 6-OHDA-induced oxidative stress mediated cell death (cell viability) (MN9D cells [1]): robustly protected
- PGC-1α mRNA expression (PGC-1α [2]; 10 or 20 μM fenofibrate, 4 hours, p<0.05 vs no treatment control): significant fold increase
- PGC-1α gene expression, dose dependence (PGC-1α [2]; FIG. 1A): increased PGC-1α in a dose-dependent manner
- mitochondrial content (MN9D cells [3]): small increase in mitochondrial content
- AMPK phosphorylation (AMPK): increased in response to fenofibrate treatment in a dose-dependent manner
- PGC-1α gene expression (PGC-1α [4]): induced PGC-1α gene expression
- LPS-induced IL-1β up-regulation (IL-1β): significantly inhibited
